# Assay results from the supplement of paper PMC10849652.
# Sequences of proteins named here, by UniProt entry; tags and fusion partners are left off. A change or cut given only in a name is not applied to a line headed by its entry.
# UniProt P61956, whole entry, looked up: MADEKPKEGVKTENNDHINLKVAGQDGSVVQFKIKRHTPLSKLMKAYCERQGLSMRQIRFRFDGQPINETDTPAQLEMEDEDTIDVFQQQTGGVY
# UniProt Q15208: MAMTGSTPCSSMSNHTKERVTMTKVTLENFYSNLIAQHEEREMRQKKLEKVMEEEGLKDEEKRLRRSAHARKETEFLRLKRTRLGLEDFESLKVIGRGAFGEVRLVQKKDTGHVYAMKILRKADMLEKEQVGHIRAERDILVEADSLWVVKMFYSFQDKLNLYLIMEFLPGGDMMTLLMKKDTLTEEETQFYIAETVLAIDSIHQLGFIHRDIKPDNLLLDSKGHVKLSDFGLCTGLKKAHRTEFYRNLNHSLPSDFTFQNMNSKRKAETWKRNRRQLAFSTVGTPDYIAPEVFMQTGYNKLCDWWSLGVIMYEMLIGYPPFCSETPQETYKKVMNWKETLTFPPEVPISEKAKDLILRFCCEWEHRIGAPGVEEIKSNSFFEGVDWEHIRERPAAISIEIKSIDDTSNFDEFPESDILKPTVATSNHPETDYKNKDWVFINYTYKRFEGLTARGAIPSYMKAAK
# UniProt Q15526: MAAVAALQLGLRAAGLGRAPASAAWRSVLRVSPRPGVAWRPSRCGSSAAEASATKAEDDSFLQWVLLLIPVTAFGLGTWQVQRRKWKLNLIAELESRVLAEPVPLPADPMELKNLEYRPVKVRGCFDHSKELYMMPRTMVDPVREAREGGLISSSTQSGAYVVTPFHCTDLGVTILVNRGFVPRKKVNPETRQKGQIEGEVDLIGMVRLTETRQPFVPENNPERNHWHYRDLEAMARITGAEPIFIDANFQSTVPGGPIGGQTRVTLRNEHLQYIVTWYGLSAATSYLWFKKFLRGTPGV
# UniProt P63165, whole entry, looked up: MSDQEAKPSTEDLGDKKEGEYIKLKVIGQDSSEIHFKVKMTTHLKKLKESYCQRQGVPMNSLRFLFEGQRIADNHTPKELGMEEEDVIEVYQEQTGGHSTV
# UniProt O43815: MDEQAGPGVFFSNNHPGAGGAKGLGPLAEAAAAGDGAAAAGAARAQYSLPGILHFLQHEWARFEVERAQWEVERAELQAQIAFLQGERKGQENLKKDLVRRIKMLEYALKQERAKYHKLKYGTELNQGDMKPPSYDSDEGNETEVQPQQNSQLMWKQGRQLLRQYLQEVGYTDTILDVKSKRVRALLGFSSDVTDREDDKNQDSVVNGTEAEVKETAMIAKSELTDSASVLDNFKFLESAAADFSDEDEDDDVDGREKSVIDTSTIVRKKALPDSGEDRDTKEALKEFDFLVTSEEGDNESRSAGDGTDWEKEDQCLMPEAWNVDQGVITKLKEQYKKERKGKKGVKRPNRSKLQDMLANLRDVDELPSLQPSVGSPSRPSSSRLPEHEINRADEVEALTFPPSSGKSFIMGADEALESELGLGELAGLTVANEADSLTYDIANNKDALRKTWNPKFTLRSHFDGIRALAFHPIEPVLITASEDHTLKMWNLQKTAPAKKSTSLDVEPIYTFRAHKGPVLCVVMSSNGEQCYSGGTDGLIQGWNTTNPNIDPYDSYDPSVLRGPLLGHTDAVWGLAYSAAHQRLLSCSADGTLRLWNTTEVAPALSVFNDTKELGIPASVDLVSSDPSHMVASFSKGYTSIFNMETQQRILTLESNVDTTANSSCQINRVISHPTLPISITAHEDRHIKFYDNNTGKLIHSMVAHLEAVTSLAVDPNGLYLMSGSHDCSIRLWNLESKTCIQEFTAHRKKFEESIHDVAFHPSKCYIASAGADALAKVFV
# UniProt Q13043: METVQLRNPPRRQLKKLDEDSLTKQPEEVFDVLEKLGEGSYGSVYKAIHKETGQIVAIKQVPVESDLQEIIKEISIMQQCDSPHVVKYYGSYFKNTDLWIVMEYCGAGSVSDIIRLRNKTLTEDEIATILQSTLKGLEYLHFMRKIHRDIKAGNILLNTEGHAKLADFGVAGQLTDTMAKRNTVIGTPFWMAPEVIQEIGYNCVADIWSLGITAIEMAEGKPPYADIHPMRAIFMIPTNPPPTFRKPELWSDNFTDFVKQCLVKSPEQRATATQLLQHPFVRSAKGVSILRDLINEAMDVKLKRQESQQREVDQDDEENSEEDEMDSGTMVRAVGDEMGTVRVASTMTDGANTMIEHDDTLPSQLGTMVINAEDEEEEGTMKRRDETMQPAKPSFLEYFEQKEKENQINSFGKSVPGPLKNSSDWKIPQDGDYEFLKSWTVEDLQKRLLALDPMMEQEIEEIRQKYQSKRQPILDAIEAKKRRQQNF
# UniProt Q96SI9: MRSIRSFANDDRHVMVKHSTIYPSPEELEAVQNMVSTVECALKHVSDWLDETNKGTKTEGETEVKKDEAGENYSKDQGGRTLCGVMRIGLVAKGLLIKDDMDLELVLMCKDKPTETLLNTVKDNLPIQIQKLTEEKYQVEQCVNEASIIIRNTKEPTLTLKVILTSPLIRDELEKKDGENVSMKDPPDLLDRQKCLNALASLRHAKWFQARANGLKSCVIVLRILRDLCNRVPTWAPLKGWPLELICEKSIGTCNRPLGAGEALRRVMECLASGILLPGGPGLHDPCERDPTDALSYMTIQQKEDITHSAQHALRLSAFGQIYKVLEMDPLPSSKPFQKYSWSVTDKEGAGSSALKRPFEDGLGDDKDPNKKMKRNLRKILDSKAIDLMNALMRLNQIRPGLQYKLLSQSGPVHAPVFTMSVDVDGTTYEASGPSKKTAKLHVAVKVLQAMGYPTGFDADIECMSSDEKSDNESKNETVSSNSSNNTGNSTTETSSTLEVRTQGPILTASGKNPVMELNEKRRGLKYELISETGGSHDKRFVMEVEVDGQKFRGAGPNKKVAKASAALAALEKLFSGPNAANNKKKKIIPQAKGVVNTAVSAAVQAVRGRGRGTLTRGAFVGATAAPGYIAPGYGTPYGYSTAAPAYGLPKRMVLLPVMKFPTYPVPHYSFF
# UniProt Q9UI15: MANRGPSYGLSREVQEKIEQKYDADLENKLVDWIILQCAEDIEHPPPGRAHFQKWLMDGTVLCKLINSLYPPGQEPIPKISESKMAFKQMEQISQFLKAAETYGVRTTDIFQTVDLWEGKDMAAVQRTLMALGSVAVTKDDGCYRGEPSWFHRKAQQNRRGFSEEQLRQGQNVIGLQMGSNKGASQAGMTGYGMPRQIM
# UniProt Q16514: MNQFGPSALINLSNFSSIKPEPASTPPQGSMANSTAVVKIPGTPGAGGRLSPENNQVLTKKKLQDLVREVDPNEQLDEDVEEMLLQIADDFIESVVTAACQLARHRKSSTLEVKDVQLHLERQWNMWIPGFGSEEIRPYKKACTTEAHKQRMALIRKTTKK
# UniProt Q9UBS9: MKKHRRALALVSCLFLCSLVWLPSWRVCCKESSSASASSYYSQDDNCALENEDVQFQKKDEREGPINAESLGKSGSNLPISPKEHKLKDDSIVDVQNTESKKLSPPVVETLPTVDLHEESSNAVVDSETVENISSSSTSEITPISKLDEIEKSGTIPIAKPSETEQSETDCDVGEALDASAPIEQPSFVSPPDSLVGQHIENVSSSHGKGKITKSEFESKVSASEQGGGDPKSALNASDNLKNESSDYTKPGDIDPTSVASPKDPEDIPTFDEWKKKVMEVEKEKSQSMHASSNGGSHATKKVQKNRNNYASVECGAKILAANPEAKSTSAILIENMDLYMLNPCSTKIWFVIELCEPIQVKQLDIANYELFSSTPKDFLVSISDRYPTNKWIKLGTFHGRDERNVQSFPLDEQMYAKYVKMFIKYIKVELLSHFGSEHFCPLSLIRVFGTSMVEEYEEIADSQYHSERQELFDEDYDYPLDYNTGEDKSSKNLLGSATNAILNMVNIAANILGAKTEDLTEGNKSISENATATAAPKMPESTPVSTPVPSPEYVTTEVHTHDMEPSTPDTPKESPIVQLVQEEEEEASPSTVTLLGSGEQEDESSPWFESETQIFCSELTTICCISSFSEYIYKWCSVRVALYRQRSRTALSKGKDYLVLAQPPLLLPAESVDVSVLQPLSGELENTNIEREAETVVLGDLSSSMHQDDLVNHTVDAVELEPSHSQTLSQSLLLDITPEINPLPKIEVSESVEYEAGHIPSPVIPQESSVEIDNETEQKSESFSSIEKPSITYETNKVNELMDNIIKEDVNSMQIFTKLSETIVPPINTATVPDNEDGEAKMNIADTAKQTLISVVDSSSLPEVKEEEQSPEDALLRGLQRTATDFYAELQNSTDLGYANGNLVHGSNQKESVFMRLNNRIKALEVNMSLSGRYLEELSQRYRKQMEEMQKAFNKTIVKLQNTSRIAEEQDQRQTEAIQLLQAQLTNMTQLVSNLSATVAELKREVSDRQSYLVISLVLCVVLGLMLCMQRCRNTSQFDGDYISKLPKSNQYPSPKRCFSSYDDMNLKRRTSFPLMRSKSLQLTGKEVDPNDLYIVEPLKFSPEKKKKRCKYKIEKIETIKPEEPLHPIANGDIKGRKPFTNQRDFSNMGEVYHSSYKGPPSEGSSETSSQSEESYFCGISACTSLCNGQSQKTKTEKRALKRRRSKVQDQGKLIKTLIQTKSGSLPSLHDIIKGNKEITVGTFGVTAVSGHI
# UniProt Q9C0B7: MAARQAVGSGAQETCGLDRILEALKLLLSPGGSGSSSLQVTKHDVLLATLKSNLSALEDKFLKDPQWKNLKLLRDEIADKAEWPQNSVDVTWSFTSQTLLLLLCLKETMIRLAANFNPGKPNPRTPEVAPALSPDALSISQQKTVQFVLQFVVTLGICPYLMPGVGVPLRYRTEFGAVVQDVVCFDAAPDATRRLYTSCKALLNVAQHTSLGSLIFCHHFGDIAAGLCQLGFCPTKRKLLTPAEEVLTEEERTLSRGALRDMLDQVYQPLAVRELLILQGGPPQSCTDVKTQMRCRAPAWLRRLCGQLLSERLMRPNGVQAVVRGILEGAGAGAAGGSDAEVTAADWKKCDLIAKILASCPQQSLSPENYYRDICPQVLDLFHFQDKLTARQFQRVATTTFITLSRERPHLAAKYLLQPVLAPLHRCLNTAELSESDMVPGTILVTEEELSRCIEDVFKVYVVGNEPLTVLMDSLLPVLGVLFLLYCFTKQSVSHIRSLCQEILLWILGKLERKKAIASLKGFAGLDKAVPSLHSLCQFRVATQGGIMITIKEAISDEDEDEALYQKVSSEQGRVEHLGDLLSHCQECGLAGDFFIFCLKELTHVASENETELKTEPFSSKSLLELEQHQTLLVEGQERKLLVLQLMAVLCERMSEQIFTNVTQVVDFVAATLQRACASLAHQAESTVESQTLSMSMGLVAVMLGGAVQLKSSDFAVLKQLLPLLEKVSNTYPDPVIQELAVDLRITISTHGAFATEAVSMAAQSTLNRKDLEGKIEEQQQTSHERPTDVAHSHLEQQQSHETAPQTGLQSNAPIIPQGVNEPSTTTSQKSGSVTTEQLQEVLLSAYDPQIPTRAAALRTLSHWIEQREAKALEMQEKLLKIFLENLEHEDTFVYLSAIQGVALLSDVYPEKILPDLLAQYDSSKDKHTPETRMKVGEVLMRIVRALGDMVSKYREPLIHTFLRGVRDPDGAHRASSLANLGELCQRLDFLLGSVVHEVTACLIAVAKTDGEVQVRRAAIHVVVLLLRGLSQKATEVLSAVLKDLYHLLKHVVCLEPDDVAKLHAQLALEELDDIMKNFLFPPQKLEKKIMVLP
# UniProt Q9P2R7: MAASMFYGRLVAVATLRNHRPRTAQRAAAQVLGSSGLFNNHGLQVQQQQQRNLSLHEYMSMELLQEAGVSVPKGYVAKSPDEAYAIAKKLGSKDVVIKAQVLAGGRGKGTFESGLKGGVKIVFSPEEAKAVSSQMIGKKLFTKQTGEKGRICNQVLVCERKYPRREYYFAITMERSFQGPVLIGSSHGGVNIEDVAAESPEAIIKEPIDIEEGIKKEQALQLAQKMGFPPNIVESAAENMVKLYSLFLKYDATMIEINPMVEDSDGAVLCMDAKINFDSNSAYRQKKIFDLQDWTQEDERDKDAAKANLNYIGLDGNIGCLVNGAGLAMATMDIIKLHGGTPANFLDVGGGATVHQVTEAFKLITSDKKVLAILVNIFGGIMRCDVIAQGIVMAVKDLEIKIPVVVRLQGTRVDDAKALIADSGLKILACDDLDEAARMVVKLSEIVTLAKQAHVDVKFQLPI
# UniProt P56962: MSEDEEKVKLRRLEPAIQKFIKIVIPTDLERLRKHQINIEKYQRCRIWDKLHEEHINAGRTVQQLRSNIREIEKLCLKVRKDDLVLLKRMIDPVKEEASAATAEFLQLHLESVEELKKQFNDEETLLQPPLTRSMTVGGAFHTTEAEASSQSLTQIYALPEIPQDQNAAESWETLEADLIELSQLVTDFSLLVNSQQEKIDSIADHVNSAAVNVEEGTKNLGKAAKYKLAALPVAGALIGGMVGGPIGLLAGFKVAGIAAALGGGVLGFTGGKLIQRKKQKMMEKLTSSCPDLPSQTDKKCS
# The other results are listed elsewhere or left out.
# Key:
# Experiment in all cases: log2 fold change, soluble protein after heating vs DMSO (PISA); higher = thermal stabilisation; K562 cells, 10 uM, 30 min; active = over 0.2 and 3.5 SD of the protein, either way, in both replicates (recomputed)
# [1] = compound: COC1=CC=C(C=C1)CN2C=CC3=C2C=C(C=C3)C(=O)NO
# In short: (§1)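 K562 cells at 2×10^6 cells/mL were treated with 10 μM compound for 30 min. Aliquots were heated for 3 min across 48°C-58°C, pooled, and extracted in PBS with 0.5% NP-40 at 4°C; soluble protein was the supernatant after 21,000xg for 90 min. Soluble protein was quantified by TMTpro 16plex LC-MS/MS with channel sums equalised, and reported as log2 fold change in thermal stability against DMSO controls, with values from duplicates.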
# filanesib = compound: CON(C)C(=O)N1N=C(c2cc(F)ccc2F)S[C@@]1(CCCN)c1ccccc1 [filanesib]
# In short: as §1
# zotarolimus = compound: CO[C@H]1C[C@@H]2CC[C@@H](C)[C@@](O)(O2)C(=O)C(=O)N2CCCC[C@H]2C(=O)O[C@H]([C@H](C)C[C@@H]2CC[C@H](n3cnnn3)[C@H](OC)C2)CC(=O)[C@H](C)/C=C(\C)[C@@H](O)[C@@H](OC)C(=O)[C@H](C)C[C@H](C)/C=C/C=C/C=C/1C [zotarolimus]
# In short: as §1
# idasanutlin = compound: COc1cc(C(=O)O)ccc1NC(=O)[C@@H]1N[C@@H](CC(C)(C)C)[C@](C#N)(c2ccc(Cl)cc2F)[C@H]1c1cccc(Cl)c1F [idasanutlin]
# In short: as §1
# alisertib = compound: COc1cc(Nc2ncc3c(n2)-c2ccc(Cl)cc2C(c2c(F)cccc2OC)=NC3)ccc1C(=O)O [alisertib]
# In short: as §1
# [2] = compound: COc1cc2nc(-c3cc(F)ccc3O)nc(N[C@@H]3CNC[C@H]3C(C)(C)O)c2cc1OC
# In short: as §1
# gefitinib = compound: COc1cc2ncnc(Nc3ccc(F)c(Cl)c3)c2cc1OCCCN1CCOCC1 [gefitinib]
# In short: as §1
# [3] = compound: COc1cccc2cc(-c3nc([C@H]4CC[C@H](C(=O)O)CC4)n4ncnc(N)c34)[nH]c12
# In short: as §1
# lapatinib = compound: CS(=O)(=O)CCNCc1ccc(-c2ccc3ncnc(Nc4ccc(OCc5cccc(F)c5)c(Cl)c4)c3c2)o1 [lapatinib]
# In short: as §1
# pictilisib = compound: CS(=O)(=O)N1CCN(Cc2cc3nc(-c4cccc5[nH]ncc45)nc(N4CCOCC4)c3s2)CC1 [pictilisib]
# In short: as §1
# [4] = compound: CS(=O)(=O)c1ccc(-c2cnc(N)c(C(=O)Nc3ccccc3)n2)cc1
# In short: as §1
# crizotinib = compound: C[C@@H](Oc1cc(-c2cnn(C3CCNCC3)c2)cnc1N)c1c(Cl)ccc(F)c1Cl [crizotinib]
# In short: as §1
# [5] = compound: C[C@H](C1=CC=C(C=C1)C(=O)NC2=C3C=CNC3=NC=C2)N
# In short: as §1
# duvelisib = compound: C[C@H](Nc1ncnc2nc[nH]c12)c1cc2cccc(Cl)c2c(=O)n1-c1ccccc1 [duvelisib]
# In short: as §1
# gandotinib = compound: Cc1cc(Nc2cc(CN3CCOCC3)c3nc(C)c(Cc4ccc(Cl)cc4F)n3n2)n[nH]1 [gandotinib]
# In short: as §1
# tozasertib = compound: Cc1cc(Nc2cc(N3CCN(C)CC3)nc(Sc3ccc(NC(=O)C4CC4)cc3)n2)n[nH]1 [tozasertib]
# In short: as §1
# [6] = compound: Cc1cc(SCc2sc(-c3ccc(C(F)(F)F)cc3)nc2C)ccc1OCC(=O)O
# In short: as §1
# doramapimod = compound: Cc1ccc(-n2nc(C(C)(C)C)cc2NC(=O)Nc2ccc(OCCN3CCOCC3)c3ccccc23)cc1 [doramapimod]
# In short: as §1
# ispinesib = compound: Cc1ccc(C(=O)N(CCCN)[C@@H](c2nc3cc(Cl)ccc3c(=O)n2Cc2ccccc2)C(C)C)cc1 [ispinesib]
# In short: as §1
# [7] = compound: C[C@@H]1COCCN1C2=NC(=NC(=C2)C3(CC3)S(=O)(=O)C)C4=C5C=CNC5=CC=C4
# In short: as §1
Target,log2 fold change [1],log2 fold change (filanesib),log2 fold change (zotarolimus),log2 fold change (idasanutlin),log2 fold change (alisertib),log2 fold change [2],log2 fold change (gefitinib),log2 fold change [3],log2 fold change (lapatinib),log2 fold change (pictilisib),log2 fold change [4],log2 fold change (crizotinib),log2 fold change [5],log2 fold change (duvelisib),log2 fold change (gandotinib),log2 fold change (tozasertib),log2 fold change [6],log2 fold change (doramapimod),log2 fold change (ispinesib),log2 fold change [7]
SUMO2 (UniProt P61956),inactive: -0.053,inactive: 0.102,inactive: -0.127,inactive: 0.126,inactive: -0.06,inactive: -0.071,inactive: -0.018,inactive: 0.091,inactive: -0.036,inactive: -0.127,inactive: -0.082,inactive: 0.085,inactive: 0.032,inactive: -0.153,inactive: 0.081,inactive: -0.133,inactive: 0.031,inactive: 0.002,inactive: -0.187,
STK38 (UniProt Q15208),inactive: 0.029,inactive: -0.024,inactive: 0.036,inactive: -0.009,inactive: 0.007,inactive: -0.006,inactive: -0.038,inactive: -0.01,inactive: -0.001,inactive: 0.146,inactive: 0.081,inactive: -0.087,inactive: -0.031,,inactive: -0.024,,inactive: 0.072,inactive: -0.011,inactive: 0.026,inactive: 0.089
SURF1 (UniProt Q15526),inactive: 0.053,inactive: -0.032,inactive: -0.008,inactive: 0.025,inactive: -0.098,inactive: -0.004,inactive: -0.055,inactive: 0.083,inactive: 0.058,inactive: 0.051,inactive: -0.001,inactive: -0.008,inactive: -0.013,,inactive: -0.066,,inactive: 0.032,inactive: 0.01,inactive: -0.181,inactive: 0.043
SUMO1 (UniProt P63165),inactive: -0.363,inactive: 0.102,inactive: -0.183,inactive: -0.099,inactive: -0.052,active: -0.507,inactive: 0.004,inactive: 0.055,active: 0.549,inactive: 0.006,inactive: -0.125,inactive: 0.06,inactive: 0.176,,inactive: 0.064,,inactive: -0.039,inactive: -0.038,inactive: 0.039,inactive: -0.045
STRN (UniProt O43815),inactive: -0.002,inactive: -0.002,inactive: 0.052,inactive: -0.018,inactive: -0.083,inactive: -0.003,inactive: 0.02,inactive: 0.017,inactive: 0.015,inactive: 0.006,inactive: 0.016,inactive: 0.068,inactive: -0.125,,inactive: -0.048,,inactive: 0.076,inactive: -0.018,inactive: 0.198,inactive: -0.004
TAX1BP1 (UniProt Q86VP1),inactive: -0.03,inactive: -0.043,inactive: -0.009,inactive: 0.069,inactive: 0.007,inactive: -0.052,inactive: 0.001,inactive: 0.033,inactive: -0.012,inactive: 0.044,inactive: -0.001,inactive: -0.009,inactive: 0.042,,inactive: 0.156,,inactive: 0.069,inactive: 0.062,inactive: -0.067,inactive: -0.058
STK4 (UniProt Q13043),inactive: -0.031,inactive: -0.034,inactive: -0.025,inactive: 0.01,inactive: -0.047,inactive: 0.099,inactive: -0.007,inactive: 0.015,inactive: -0.036,inactive: 0.02,inactive: 0.009,inactive: -0.01,inactive: 0.036,,inactive: 0.043,,inactive: -0.004,inactive: -0.008,inactive: -0.03,inactive: 0.032
STRBP (UniProt Q96SI9),inactive: 0.003,inactive: 0.191,inactive: -0.036,inactive: 0.114,inactive: -0.221,inactive: 0.085,inactive: -0.073,inactive: 0.039,inactive: 0.053,,inactive: -0.127,inactive: -0.062,inactive: 0.273,inactive: -0.082,,inactive: 0.02,inactive: 0.036,inactive: 0.009,inactive: -0.052,inactive: -0.059
SUPT5H (UniProt O00267),inactive: 0.02,inactive: -0.005,inactive: 0.042,inactive: -0.062,inactive: -0.003,inactive: 0.058,inactive: 0.028,inactive: 0.027,inactive: -0.006,inactive: 0.05,inactive: 0.057,inactive: 0.049,inactive: -0.057,,inactive: -0.043,,inactive: 0.079,inactive: -0.043,inactive: 0.02,inactive: 0.129
SYNJ2 (UniProt O15056),inactive: 0.038,inactive: 0.09,,inactive: 0.025,inactive: -0.031,,inactive: 0.076,inactive: -0.18,,inactive: -0.079,inactive: 0.112,inactive: 0.06,,inactive: -0.242,inactive: -0.008,,inactive: 0.257,inactive: -0.003,inactive: -0.075,inactive: -0.037
TAGLN3 (UniProt Q9UI15),inactive: -0.341,inactive: 0.024,inactive: -0.159,inactive: 0.023,inactive: 0.083,,,inactive: 0.155,,,inactive: 0.084,inactive: 0.053,inactive: 0.074,inactive: 0.184,,inactive: 0.03,inactive: -0.2,inactive: 0.024,,inactive: 0.126
TAF12 (UniProt Q16514),inactive: 0.035,inactive: -0.073,,,inactive: -0.027,inactive: 0,inactive: 0.015,inactive: -0.019,inactive: 0.048,inactive: 0.049,inactive: -0.049,inactive: -0.06,,,inactive: 0.082,inactive: 0.01,,inactive: 0.096,,
SYMPK (UniProt Q92797),inactive: 0.069,inactive: -0.102,inactive: 0.07,inactive: -0.127,inactive: 0.047,inactive: 0.036,inactive: 0.107,inactive: 0.025,inactive: -0.045,inactive: 0.155,inactive: -0.031,inactive: -0.189,inactive: -0.026,,inactive: -0.155,,inactive: 0.235,inactive: -0.09,inactive: -0.023,inactive: 0.046
SUCO (UniProt Q9UBS9),inactive: 0.029,inactive: 0.107,inactive: 0.21,inactive: 0.003,inactive: -0.294,inactive: 0.231,,inactive: -0.127,inactive: 0.029,inactive: 0.075,inactive: 0.117,inactive: -0.36,inactive: 0.347,inactive: -0.093,inactive: 0.08,inactive: -0.053,inactive: 0.041,inactive: -0.152,inactive: -0.185,inactive: 0.028
TANGO6 (UniProt Q9C0B7),inactive: -0.025,inactive: 0.04,inactive: 0.061,inactive: -0.112,inactive: 0.032,inactive: -0.015,inactive: -0.049,inactive: -0.036,inactive: 0.022,,inactive: 0.006,inactive: -0.123,active: 0.366,,,,inactive: 0.078,inactive: -0.004,inactive: -0.085,inactive: -0.022
SUCLA2 (UniProt Q9P2R7),inactive: -0.004,inactive: -0.096,inactive: 0.01,inactive: -0.074,inactive: 0.104,inactive: 0.093,inactive: 0.022,inactive: 0.018,inactive: -0.05,inactive: 0.109,inactive: 0.034,inactive: 0.001,inactive: -0.011,,inactive: -0.058,,inactive: 0.012,inactive: 0.003,inactive: -0.064,inactive: 0.087
SUGP1 (UniProt Q8IWZ8),inactive: 0.027,inactive: -0.01,inactive: 0,inactive: 0.026,inactive: -0.038,inactive: -0.007,inactive: 0.055,inactive: -0.02,inactive: -0.046,inactive: 0.032,inactive: 0.021,inactive: -0.001,inactive: -0.064,,inactive: -0.077,,inactive: 0.09,inactive: -0.033,inactive: 0.019,inactive: 0.015
STX17 (UniProt P56962),inactive: 0.023,inactive: 0.013,inactive: 0.046,inactive: -0.027,inactive: -0.12,inactive: -0.081,inactive: 0.027,inactive: -0.001,inactive: 0.039,inactive: 0.093,inactive: 0.197,inactive: -0.27,inactive: -0.171,,inactive: -0.026,,inactive: 0.001,inactive: 0.031,inactive: -0.246,inactive: 0.025

# 2 entries from above, set out differently.
Target | log2 fold change [1] | log2 fold change (filanesib) | log2 fold change (zotarolimus) | log2 fold change (idasanutlin) | log2 fold change (alisertib) | log2 fold change [2] | log2 fold change (gefitinib) | log2 fold change [3] | log2 fold change (lapatinib) | log2 fold change (pictilisib) | log2 fold change [4] | log2 fold change (crizotinib) | log2 fold change [5] | log2 fold change (duvelisib) | log2 fold change (gandotinib) | log2 fold change (tozasertib) | log2 fold change [6] | log2 fold change (doramapimod) | log2 fold change (ispinesib) | log2 fold change [7]
SYMPK (UniProt Q92797) | inactive: 0.069 | inactive: -0.102 | inactive: 0.07 | inactive: -0.127 | inactive: 0.047 | inactive: 0.036 | inactive: 0.107 | inactive: 0.025 | inactive: -0.045 | inactive: 0.155 | inactive: -0.031 | inactive: -0.189 | inactive: -0.026 |  | inactive: -0.155 |  | inactive: 0.235 | inactive: -0.09 | inactive: -0.023 | inactive: 0.046
SUCO (UniProt Q9UBS9) | inactive: 0.029 | inactive: 0.107 | inactive: 0.21 | inactive: 0.003 | inactive: -0.294 | inactive: 0.231 |  | inactive: -0.127 | inactive: 0.029 | inactive: 0.075 | inactive: 0.117 | inactive: -0.36 | inactive: 0.347 | inactive: -0.093 | inactive: 0.08 | inactive: -0.053 | inactive: 0.041 | inactive: -0.152 | inactive: -0.185 | inactive: 0.028
